According to article PMC9830504:
Results are given in words; binding and its absence hold for the method and conditions named. Binding seen in cells or lysates may run through a third protein. Some results given as binding are weak or reduced against the parent protein; the word gives no strength.

The chains behind the UniProt entries cited, without tags or fusion partners.
UniProt P49841: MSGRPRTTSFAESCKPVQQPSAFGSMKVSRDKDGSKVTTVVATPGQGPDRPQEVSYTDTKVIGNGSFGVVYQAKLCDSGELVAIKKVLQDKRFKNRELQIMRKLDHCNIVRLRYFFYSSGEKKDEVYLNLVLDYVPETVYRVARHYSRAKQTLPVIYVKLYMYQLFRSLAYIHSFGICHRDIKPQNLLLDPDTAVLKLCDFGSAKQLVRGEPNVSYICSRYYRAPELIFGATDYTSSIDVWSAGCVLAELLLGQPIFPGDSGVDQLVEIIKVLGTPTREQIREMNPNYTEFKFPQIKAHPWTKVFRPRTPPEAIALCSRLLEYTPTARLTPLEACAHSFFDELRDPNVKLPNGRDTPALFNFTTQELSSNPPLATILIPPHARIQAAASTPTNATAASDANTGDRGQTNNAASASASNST
UniProt O95863: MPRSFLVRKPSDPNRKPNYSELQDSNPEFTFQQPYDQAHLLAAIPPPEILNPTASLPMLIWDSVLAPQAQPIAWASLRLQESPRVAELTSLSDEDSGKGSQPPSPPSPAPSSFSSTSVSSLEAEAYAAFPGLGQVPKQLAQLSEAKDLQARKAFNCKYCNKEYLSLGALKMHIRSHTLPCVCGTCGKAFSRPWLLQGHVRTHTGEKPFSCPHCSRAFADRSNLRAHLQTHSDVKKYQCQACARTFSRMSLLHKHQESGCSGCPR
UniProt Q14974: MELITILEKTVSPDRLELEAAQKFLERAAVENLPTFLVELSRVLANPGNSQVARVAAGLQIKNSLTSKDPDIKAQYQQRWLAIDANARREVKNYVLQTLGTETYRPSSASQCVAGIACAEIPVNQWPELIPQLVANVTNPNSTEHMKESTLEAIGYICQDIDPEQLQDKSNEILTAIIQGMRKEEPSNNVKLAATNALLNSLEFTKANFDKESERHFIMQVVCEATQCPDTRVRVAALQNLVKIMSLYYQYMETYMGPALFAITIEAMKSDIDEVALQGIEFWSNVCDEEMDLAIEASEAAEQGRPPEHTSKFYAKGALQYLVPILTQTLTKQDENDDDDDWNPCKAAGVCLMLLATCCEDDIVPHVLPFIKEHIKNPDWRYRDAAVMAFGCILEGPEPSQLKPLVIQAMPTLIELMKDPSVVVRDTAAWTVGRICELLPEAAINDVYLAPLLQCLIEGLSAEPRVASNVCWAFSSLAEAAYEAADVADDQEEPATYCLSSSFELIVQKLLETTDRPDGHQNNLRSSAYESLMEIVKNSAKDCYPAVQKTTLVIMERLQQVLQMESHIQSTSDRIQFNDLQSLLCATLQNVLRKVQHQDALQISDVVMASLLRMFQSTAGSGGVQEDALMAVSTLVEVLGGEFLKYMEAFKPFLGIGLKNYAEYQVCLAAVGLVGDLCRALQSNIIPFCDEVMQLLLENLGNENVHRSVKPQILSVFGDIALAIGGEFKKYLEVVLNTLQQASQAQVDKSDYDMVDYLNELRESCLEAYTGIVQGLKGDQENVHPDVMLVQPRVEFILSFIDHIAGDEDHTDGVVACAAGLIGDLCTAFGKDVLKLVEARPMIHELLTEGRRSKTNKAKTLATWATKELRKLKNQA

How the values were obtained:
[1] = biological target: GSK-3β (human (endogenous in MDA-MB-231 and MCF7)) (UniProt P49841); assay: co-IP; lysates of MDA-MB-231 and MCF7 cells stably expressing vector, immunoprecipitated with an anti-GSK3β or an anti-SNAIL antibody, then immunoblot
[2] = biological target: T1, Annexin A1 (ANXA1) (human (endogenous in MDA-MB-231 and MCF7)) (UniProt P04083); assay: co-IP; lysates of MDA-MB-231 and MCF7 cells stably expressing vector or Flag-NTF4, immunoprecipitated with an anti-ANXA1 antibody, then immunoblot
T1 sequence: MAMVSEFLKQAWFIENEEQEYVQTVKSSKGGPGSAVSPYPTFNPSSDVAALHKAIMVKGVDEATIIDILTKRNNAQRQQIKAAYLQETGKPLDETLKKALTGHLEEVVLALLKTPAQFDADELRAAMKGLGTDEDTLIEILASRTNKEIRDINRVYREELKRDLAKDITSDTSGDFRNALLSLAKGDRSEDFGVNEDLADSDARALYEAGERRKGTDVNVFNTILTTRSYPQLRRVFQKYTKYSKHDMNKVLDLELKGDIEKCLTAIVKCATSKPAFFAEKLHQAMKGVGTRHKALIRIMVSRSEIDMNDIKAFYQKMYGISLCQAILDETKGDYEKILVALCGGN

Row | Substance | binding [1] | binding [2]
1 | SNAIL (from UniProt O95863 1-264) | binds | 
2 | importin β (from UniProt Q14974 1-876) |  | binds
